This is one part of the list. Many values rest on one well or one pass, so single values are uncertain.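 Imaging used 1,536-well plates; nuclei positive for cleaved PARP by antibody were divided by total DNA-stained nuclei to yield the apoptosis fraction. Doses for screening kept most cells viable, and cell lines differ markedly in resting and induced cleaved-PARP levels.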
What was measured:
Assay in all cases: cleaved PARP positive nuclei fraction relative to DMSO control; melanoma cells; higher = more apoptosis
Details in all cases: library dose: low library concentration; 72 h
501Mel = tested on: 501Mel
A101D = tested on: A101D
A2058 = tested on: A2058
A375 = tested on: A375
C32 = tested on: C32
CBRC008 = tested on: CBRC008 (line from a melanoma biopsy)
CBRC014 = tested on: CBRC014 (line from a melanoma biopsy)
CBRC016 = tested on: CBRC016 (line from a melanoma biopsy)
CBRC017 = tested on: CBRC017 (line from a melanoma biopsy)
CBRC034 = tested on: CBRC034 (line from a melanoma biopsy)
COLO792 = tested on: COLO792
COLO800 = tested on: COLO800
COLO829 = tested on: COLO829
G361 = tested on: G361
IPC-298 = tested on: IPC-298
IST-MEL1 = tested on: IST-MEL1
LB2518-MEL = tested on: LB2518-MEL
LOXIMVI = tested on: LOXIMVI
MEL-HO = tested on: MEL-HO

Row | Structure (SMILES) | cleaved PARP positive nuclei fraction (501Mel) [%] | cleaved PARP positive nuclei fraction (A101D) [%] | cleaved PARP positive nuclei fraction (A2058) [%] | cleaved PARP positive nuclei fraction (A375) [%] | cleaved PARP positive nuclei fraction (C32) [%] | cleaved PARP positive nuclei fraction (CBRC008) [%] | cleaved PARP positive nuclei fraction (CBRC014) [%] | cleaved PARP positive nuclei fraction (CBRC016) [%] | cleaved PARP positive nuclei fraction (CBRC017) [%] | cleaved PARP positive nuclei fraction (CBRC034) [%] | cleaved PARP positive nuclei fraction (COLO792) [%] | cleaved PARP positive nuclei fraction (COLO800) [%] | cleaved PARP positive nuclei fraction (COLO829) [%] | cleaved PARP positive nuclei fraction (G361) [%] | cleaved PARP positive nuclei fraction (IPC-298) [%] | cleaved PARP positive nuclei fraction (IST-MEL1) [%] | cleaved PARP positive nuclei fraction (LB2518-MEL) [%] | cleaved PARP positive nuclei fraction (LOXIMVI) [%] | cleaved PARP positive nuclei fraction (MEL-HO) [%]
1 | CS(=O)(=O)c1ccc(C(=O)Nc2ccc(Cl)c(-c3ccccn3)c2)c(Cl)c1 [vismodegib] + Cn1c(=O)n(-c2ccc(C(C)(C)C#N)cc2)c2c3cc(-c4cnc5ccccc5c4)ccc3ncc21 [NVP-BEZ235] (first compound 1 µM, partner dose 0.004 µM) | 77.5 | 45.2 | 99.9 | 102 | 82.1 | 79.2 | 72.1 | 151 | 90 | 68.9 | 92 | 98.2 | 119 | 183 | 82.2 | 185 | 52.9 | 137 | 149
2 | CS(=O)(=O)c1ccc(C(=O)Nc2ccc(Cl)c(-c3ccccn3)c2)c(Cl)c1 [vismodegib] + C=CCNC1=C2C[C@@H](C)C[C@H](OC)[C@H](O)[C@@H](C)/C=C(\C)[C@H](OC(N)=O)[C@@H](OC)/C=C\C=C(/C)C(=O)NC(=CC1=O)C2=O [Tanespimycin] (first compound 1 µM, partner dose 0.002 µM) | 47.5 | 43.8 | 133 | 110 | 43.2 | 122 | 100 | 54.7 | 124 | 137 | 107 | 186 | 129 | 24.2 | 31 | 102 | 23.9 | 93.4 | 16.6
3 | NC(=O)c1ccc(N(C(N)=O)c2c(F)cccc2F)nc1-c1ccc(F)cc1F + Nc1ccn([C@@H]2O[C@H](CO)[C@@H](O)C2(F)F)c(=O)n1 [gemcitabine] (first compound 0.4 µM, partner dose 0.0004 µM) | 121 | 52 | 145 | 42.7 | 72.1 | 40.1 | 186 | 125 | 133 | 229 | 229 | 125 | 107 | 149 | 150 | 88.6 | 120 | 28.1 | 186
4 | COc1ccc(C2=N[C@@H](c3ccc(Cl)cc3)[C@@H](c3ccc(Cl)cc3)N2C(=O)N2CCNC(=O)C2)c(OC(C)C)c1 [Nutlin-3] + CCN(CC)CCNC(=O)c1c(C)[nH]c(/C=C2\C(=O)Nc3ccc(F)cc32)c1C [sunitinib] (first compound 0.1 µM, partner dose 0.4 µM) | 90.1 | 50.7 | 31.6 | 104 | 84 | 76.1 | 100 | 45.5 | 147 | 63.4 | 170 | 66.3 | 110 | 84.5 | 111 | 60.1 | 113 | 91.2 | 107
5 | C[C@@H](N)c1ccc(C(=O)Nc2ccnc3[nH]ccc23)cc1 + CCCS(=O)(=O)Nc1ccc(F)c(C(=O)c2c[nH]c3ncc(Cl)cc23)c1F [PLX4720] (first compound 0.4 µM, partner dose 0.08 µM) | 199 | 104 | 143 | 99 | 205 | 36.7 | 113 | 259 | 90.1 | 168 | 85.6 | 93.5 | 111 | 120 | 85 | 86 | 241 | 241 | 155
6 | COc1ccc(C2=N[C@@H](c3ccc(Cl)cc3)[C@@H](c3ccc(Cl)cc3)N2C(=O)N2CCNC(=O)C2)c(OC(C)C)c1 [Nutlin-3] + CNC(=O)c1cc(Oc2ccc(NC(=O)Nc3ccc(Cl)c(C(F)(F)F)c3)cc2)ccn1 [sorafenib] (first compound 0.1 µM, partner dose 0.4 µM) | 56.9 | 115 | 81.9 | 79.7 | 92.6 | 121 | 79.5 | 118 | 78.4 | 160 | 44.9 | 191 | 60.3 | 48.6 | 95.9 | 57.6 | 117 | 66.4 | 43.4
7 | CCCCCCCCc1ccc(CCC(N)(CO)CO)cc1 [fingolimod] + Nc1cccc2c1CN(C1CCC(=O)NC1=O)C2=O [lenalidomide] (first compound 2 µM, partner dose 1 µM) | 156 | 45.9 | 308 | 394 | 74 | 101 | 91.6 | 83.8 | 124 | 128 | 89.9 | 236 | 104 | 56.4 | 90.7 | 123 | 93.5 | 159 | 220
8 | CC1(C)CCC(c2ccc(Cl)cc2)=C(CN2CCN(c3ccc(C(=O)NS(=O)(=O)c4ccc(N[C@H](CCN5CCOCC5)CSc5ccccc5)c(S(=O)(=O)C(F)(F)F)c4)cc3)CC2)C1 + Cc1cn(-c2cc(NC(=O)c3ccc(C)c(Nc4nccc(-c5cccnc5)n4)c3)cc(C(F)(F)F)c2)cn1 [nilotinib] (first compound 0.4 µM, partner dose 0.2 µM) | 193 | 87.5 | 263 | 316 | 283 | 1370 | 449 | 666 | 277 | 129 | 315 | 241 | 98.2 | 238 | 161 | 139 | 209 | 108 | 123
9 | CCN(CC)CCNC(=O)c1c(C)[nH]c(/C=C2\C(=O)Nc3ccc(F)cc32)c1C [sunitinib] + Cn1c(=O)n(-c2ccc(C(C)(C)C#N)cc2)c2c3cc(-c4cnc5ccccc5c4)ccc3ncc21 [NVP-BEZ235] (first compound 0.4 µM, partner dose 0.004 µM) | 192 | 60.5 | 99.2 | 258 | 80.2 | 306 | 93.4 | 35.3 | 92 | 26.7 | 78.2 | 113 | 93.4 | 126 | 41.4 | 32.9 | 267 | 33.9 | 57.7
10 | C[C@]1(O)C[C@@H](c2nc(-c3ccc4ccc(-c5ccccc5)nc4c3)c3c(N)nccn32)C1 + CN(c1ncccc1CNc1nc(Nc2ccc3c(c2)CC(=O)N3)ncc1C(F)(F)F)S(C)(=O)=O [PF562271] (first compound 0.4 µM, partner dose 0.08 µM) | 176 | 50 | 29 | 11.6 | 33.3 | 52.5 | 107 | 59.5 | 128 | 85.3 | 104 | 167 | 68.4 | 126 | 92.8 | 132 | 151 | 306 | 112
11 | C[C@@H](N)c1ccc(C(=O)Nc2ccnc3[nH]ccc23)cc1 + Nc1ncn([C@H]2C[C@H](O)[C@@H](CO)O2)c(=O)n1 [decitabine] (first compound 0.4 µM, partner dose 0.1 µM) | 190 | 113 | 224 | 180 | 84.7 | 34.5 | 102 | 368 | 77.3 | 57.1 | 80.1 | 85 | 198 | 163 | 274 | 187 | 114 | 40.3 | 57.5
12 | CN(c1ncccc1CNc1nc(Nc2ccc3c(c2)CC(=O)N3)ncc1C(F)(F)F)S(C)(=O)=O + Cn1c(=O)n(-c2ccc(C(C)(C)C#N)cc2)c2c3cc(-c4cnc5ccccc5c4)ccc3ncc21 [NVP-BEZ235] (first compound 0.08 µM, partner dose 0.004 µM) | 145 | 108 | 136 | 215 | 88.8 | 107 | 139 | 57.9 | 199 | 87 | 91.8 | 79.5 | 213 | 114 | 46.1 | 129 | 105 | 187 | 65.3
13 | CCCCCCCCc1ccc(CCC(N)(CO)CO)cc1 [fingolimod] + C=CCNC1=C2C[C@@H](C)C[C@H](OC)[C@H](O)[C@@H](C)/C=C(\C)[C@H](OC(N)=O)[C@@H](OC)/C=C\C=C(/C)C(=O)NC(=CC1=O)C2=O [Tanespimycin] (first compound 2 µM, partner dose 0.002 µM) | 191 | 118 | 187 | 340 | 88.4 | 170 | 109 | 133 | 309 | 231 | 104 | 61.7 | 127 | 190 | 139 | 71.6 | 76.6 | 184 | 166
14 | NC(=O)c1ccc(N(C(N)=O)c2c(F)cccc2F)nc1-c1ccc(F)cc1F + Nc1nc(F)nc2c1ncn2[C@@H]1O[C@H](CO)[C@@H](O)[C@@H]1O [fludarabine] (first compound 0.4 µM, partner dose 0.2 µM) | 22100 | 44.7 | 116 | 6620 | 85.6 | 90.2 | 131 | 40.2 | 123 | 75.3 | 41.9 | 68 | 70.3 | 166 | 43.2 | 135 | 576 | 73.5 | 85.2
15 | C[C@]1(O)C[C@@H](c2nc(-c3ccc4ccc(-c5ccccc5)nc4c3)c3c(N)nccn32)C1 + OCc1c[nH]c2ccccc12 [Indole-3-carbinol] (first compound 0.4 µM, partner dose 0.8 µM) | 337 | 127 | 81.7 | 549 | 89 | 61.9 | 110 | 44.1 | 124 | 29.6 | 43.9 | 208 | 105 | 227 | 61.6 | 59.8 | 108 | 272 | 280
16 | COc1ccc(C2=N[C@@H](c3ccc(Cl)cc3)[C@@H](c3ccc(Cl)cc3)N2C(=O)N2CCNC(=O)C2)c(OC(C)C)c1 [Nutlin-3] + C=CCNC1=C2C[C@@H](C)C[C@H](OC)[C@H](O)[C@@H](C)/C=C(\C)[C@H](OC(N)=O)[C@@H](OC)/C=C\C=C(/C)C(=O)NC(=CC1=O)C2=O [Tanespimycin] (first compound 0.1 µM, partner dose 0.002 µM) | 89.2 | 199 | 94.6 | 170 | 89.4 | 50.8 | 123 | 55.8 | 134 | 64.5 | 112 | 24.5 | 129 | 122 | 81.2 | 119 | 110 | 95 | 42.1
17 | CS(=O)(=O)c1ccc(C(=O)Nc2ccc(Cl)c(-c3ccccn3)c2)c(Cl)c1 [vismodegib] + C[C@@H](Oc1cc(-c2cnn(C3CCNCC3)c2)cnc1N)c1c(Cl)ccc(F)c1Cl [Crizotinib] (first compound 1 µM, partner dose 0.2 µM) | 114 | 231 | 105 | 77.5 | 80.7 | 107 | 83.7 | 146 | 106 | 68.9 | 48.8 | 86.4 | 135 | 110 | 146 | 52.6 | 54.3 | 87.7 | 43.2

Two entries from above, in markdown:

| Row | Structure (SMILES) | cleaved PARP positive nuclei fraction (501Mel) [%] | cleaved PARP positive nuclei fraction (A101D) [%] | cleaved PARP positive nuclei fraction (A2058) [%] | cleaved PARP positive nuclei fraction (A375) [%] | cleaved PARP positive nuclei fraction (C32) [%] | cleaved PARP positive nuclei fraction (CBRC008) [%] | cleaved PARP positive nuclei fraction (CBRC014) [%] | cleaved PARP positive nuclei fraction (CBRC016) [%] | cleaved PARP positive nuclei fraction (CBRC017) [%] | cleaved PARP positive nuclei fraction (CBRC034) [%] | cleaved PARP positive nuclei fraction (COLO792) [%] | cleaved PARP positive nuclei fraction (COLO800) [%] | cleaved PARP positive nuclei fraction (COLO829) [%] | cleaved PARP positive nuclei fraction (G361) [%] | cleaved PARP positive nuclei fraction (IPC-298) [%] | cleaved PARP positive nuclei fraction (IST-MEL1) [%] | cleaved PARP positive nuclei fraction (LB2518-MEL) [%] | cleaved PARP positive nuclei fraction (LOXIMVI) [%] | cleaved PARP positive nuclei fraction (MEL-HO) [%] |
| --- | --- | --- | --- | --- | --- | --- | --- | --- | --- | --- | --- | --- | --- | --- | --- | --- | --- | --- | --- | --- |
| 5 | C[C@@H](N)c1ccc(C(=O)Nc2ccnc3[nH]ccc23)cc1 + CCCS(=O)(=O)Nc1ccc(F)c(C(=O)c2c[nH]c3ncc(Cl)cc23)c1F [PLX4720] (first compound 0.4 µM, partner dose 0.08 µM) | 199 | 104 | 143 | 99 | 205 | 36.7 | 113 | 259 | 90.1 | 168 | 85.6 | 93.5 | 111 | 120 | 85 | 86 | 241 | 241 | 155 |
| 6 | COc1ccc(C2=N[C@@H](c3ccc(Cl)cc3)[C@@H](c3ccc(Cl)cc3)N2C(=O)N2CCNC(=O)C2)c(OC(C)C)c1 [Nutlin-3] + CNC(=O)c1cc(Oc2ccc(NC(=O)Nc3ccc(Cl)c(C(F)(F)F)c3)cc2)ccn1 [sorafenib] (first compound 0.1 µM, partner dose 0.4 µM) | 56.9 | 115 | 81.9 | 79.7 | 92.6 | 121 | 79.5 | 118 | 78.4 | 160 | 44.9 | 191 | 60.3 | 48.6 | 95.9 | 57.6 | 117 | 66.4 | 43.4 |
